Assay results reported in article PMC12872393, “NCOA4 initiates ferritinophagy by avidly binding GATE16 using two short linear interaction motifs” (Life Science Alliance, 2026).
These are yes or no findings as the source states them, for the method shown. Some entries that bind do so weakly or less than the wild type. For part of these data: Tags and fused reporters may be left off the sequences shown.

By UniProt entry, the sequences of proteins in these tests, tags left out.
UniProt P60520: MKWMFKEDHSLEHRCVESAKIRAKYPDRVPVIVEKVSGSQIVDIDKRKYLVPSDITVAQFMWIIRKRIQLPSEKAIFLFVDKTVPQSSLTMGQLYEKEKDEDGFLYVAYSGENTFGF

T1: biotinylated AviTag-His6-NCOA4^383−522-MBP (human), Q13772
T1 chain: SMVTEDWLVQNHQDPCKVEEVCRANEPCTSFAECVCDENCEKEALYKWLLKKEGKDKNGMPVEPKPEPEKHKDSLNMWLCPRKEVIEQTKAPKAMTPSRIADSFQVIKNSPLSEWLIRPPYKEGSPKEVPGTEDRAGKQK

B1: biotinylated AviTag-His6-NCOA4^383−522-MBP, Q13772 383-522 (domain or fragment)
chain: SMVTEDWLVQNHQDPCKVEEVCRANEPCTSFAECVCDENCEKEALYKWLLKKEGKDKNGMPVEPKPEPEKHKDSLNMWLCPRKEVIEQTKAPKAMTPSRIADSFQVIKNSPLSEWLIRPPYKEGSPKEVPGTEDRAGKQK
modifications: here or on the partner: biotin on the AviTag (BirA co-expressed); biotin on the AviTag (BirA co-expressed)

Key:
[1] = molecular target: monomeric GATE16 (mGATE16) (UniProt P60520); experiment: fluorescence polarisation; competition anisotropy: 1.5 μM mGATE16 with 10 nM labeled ATG4B peptide; increasing unlabeled peptide; 20 mM Tris, 150 mM NaCl, pH 7.5; RT; both purified
[2] = molecular target: T1, biotinylated …; experiment: SEC-MALS; 100 μl of 1 mg/ml protein on a WTC-030 column; 20 mM Tris, 150 mM NaCl, pH 7.5; 0.5 ml/min; both purified; conditions: remark: other sources report otherwise

Row | Binder | binding [1] | binding [2]
1 | TKAPKAMTPSRIADSFQVI [SFQVI peptide (…), unlabeled] | binds weakly | 
2 | NEPCTSFAECVCDENCEKEA [FAECV peptide (…), unlabeled] | binds weakly | 
3 | B1 |  | no binding (tested: 1 mg/ml)
